These are yes or no findings as the source states them, for the method shown. For some assays here: Binding can be weak; no strength is given. Sequences can lack the tags named with a protein.
What was measured:
[1] = biological target: T1, EcSufC (BACTH fusion tested with MeSufDSU) (E. coli) (UniProt P77499); test: two-hybrid
T1 sequence: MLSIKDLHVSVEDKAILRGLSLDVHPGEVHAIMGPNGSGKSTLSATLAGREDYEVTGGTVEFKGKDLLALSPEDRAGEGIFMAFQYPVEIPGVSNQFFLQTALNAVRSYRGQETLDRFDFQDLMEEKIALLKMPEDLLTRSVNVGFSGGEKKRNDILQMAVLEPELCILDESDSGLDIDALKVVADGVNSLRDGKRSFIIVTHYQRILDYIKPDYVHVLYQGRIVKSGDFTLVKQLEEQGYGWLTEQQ

[2] = biological target: T2, EcSufB (BACTH fusion tested with MeSufDSU) (E. coli) (UniProt P77522); test: two-hybrid
T2 sequence: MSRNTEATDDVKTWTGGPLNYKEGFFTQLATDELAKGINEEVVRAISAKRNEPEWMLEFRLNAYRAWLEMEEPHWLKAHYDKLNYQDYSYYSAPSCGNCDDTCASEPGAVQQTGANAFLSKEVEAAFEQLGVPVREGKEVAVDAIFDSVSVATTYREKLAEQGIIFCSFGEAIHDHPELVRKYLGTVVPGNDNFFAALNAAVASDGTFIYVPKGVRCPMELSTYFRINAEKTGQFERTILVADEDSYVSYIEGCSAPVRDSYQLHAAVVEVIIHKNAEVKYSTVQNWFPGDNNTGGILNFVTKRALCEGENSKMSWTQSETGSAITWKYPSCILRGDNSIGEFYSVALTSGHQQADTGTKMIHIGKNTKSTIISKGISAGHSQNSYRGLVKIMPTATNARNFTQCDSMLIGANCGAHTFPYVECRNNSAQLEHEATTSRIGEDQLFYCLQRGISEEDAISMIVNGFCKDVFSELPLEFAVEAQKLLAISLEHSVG

“MeSufDSU (BACTH fusion) (Monocercomonoides exilis)” was tested, and the binding [1] was “binds” and the binding [2] was “no binding”.
